Data on 21 compounds can be found in the supplement of paper PMC4604168 (melanoma cell lines).

The list shows a part of the results. Single values are uncertain, as repeats are few or missing.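 Imaging used 1,536-well plates; nuclei positive for cleaved PARP by antibody were divided by total DNA-stained nuclei to yield the apoptosis fraction. Doses for screening kept most cells viable, and cell lines differ markedly in resting and induced cleaved-PARP levels.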

This assay deals with CBRC008 (line from a melanoma biopsy). As to the kind of experiment: cleaved PARP positive nuclei fraction relative to DMSO control; melanoma cells; higher = more apoptosis. Particulars: library dose: low library concentration; 72 h.
In the case of `C[C@]1(O)C[C@@H](c2nc(-c3ccc4ccc(-c5ccccc5)nc4c3)c3c(N)nccn32)C1` + O=C(Nc1ccccc1)c1cc([N+](=O)[O-])ccc1Cl [GW9662] (first compound 0.4 µM, partner dose 2 µM), the “cleaved PARP positive nuclei fraction” value was 345%.
`NC1(c2ccc(-c3nc4ccn5c(=O)[nH]nc5c4cc3-c3ccccc3)cc2)CCC1` + Cc1cc(N2CCOCC2)cc2[nH]c(-c3c(NC[C@@H](O)c4cccc(Cl)c4)cc[nH]c3=O)nc12 [BMS536924] (first compound 0.4 µM, partner dose 0.2 µM): the “cleaved PARP positive nuclei fraction” value stood at 180%.
The figure for `CCN(CC)CCNC(=O)c1c(C)[nH]c(/C=C2\C(=O)Nc3ccc(F)cc32)c1C` [sunitinib] + O=c1cc(-c2cccc3c2Sc2ccccc2S3)oc(N2CCOCC2)c1 [KU55933] (first compound 0.4 µM, partner dose 1 µM) is 86%; for `CS(=O)(=O)c1ccc(C(=O)Nc2ccc(Cl)c(-c3ccccn3)c2)c(Cl)c1` [vismodegib] + CN(NC(=O)CC(=O)NN(C)C(=S)c1ccccc1)C(=S)c1ccccc1 [STA4783] (first compound 1 µM, partner dose 0.006 µM) it is 1220%.
As to `Cn1cnc2c(F)c(Nc3ccc(Br)cc3Cl)c(C(=O)NOCCO)cc21` [selumetinib] + C=CCNC1=C2C[C@@H](C)C[C@H](OC)[C@H](O)[C@@H](C)/C=C(\C)[C@H](OC(N)=O)[C@@H](OC)/C=C\C=C(/C)C(=O)NC(=CC1=O)C2=O [Tanespimycin] (first compound 0.015 µM, partner dose 0.002 µM), the “cleaved PARP positive nuclei fraction” value turned out to be 92.5%.
`Cn1cnc2c(F)c(Nc3ccc(Br)cc3Cl)c(C(=O)NOCCO)cc21` [selumetinib] + O=S(=O)(c1ccccc1)N(CC(F)(F)F)c1ccc(C(O)(C(F)(F)F)C(F)(F)F)cc1 [T0901317] (first compound 0.015 µM, partner dose 1.4 µM): the “cleaved PARP positive nuclei fraction” value was found to be 93.3%.
As to `NC1(c2ccc(-c3nc4ccn5c(=O)[nH]nc5c4cc3-c3ccccc3)cc2)CCC1` + O=C(O)C(=O)Nc1sc2c(c1C(=O)O)CCNC2 [TCS401] (first compound 0.4 µM, partner dose 1.66667 µM), the “cleaved PARP positive nuclei fraction” value was determined as 64.3%.
The figure for `CC1(C)CCC(c2ccc(Cl)cc2)=C(CN2CCN(c3ccc(C(=O)NS(=O)(=O)c4ccc(N[C@H](CCN5CCOCC5)CSc5ccccc5)c(S(=O)(=O)C(F)(F)F)c4)cc3)CC2)C1` + Nc1nc(F)nc2c1ncn2[C@@H]1O[C@H](CO)[C@@H](O)[C@@H]1O [fludarabine] (first compound 0.4 µM, partner dose 0.2 µM) is 325%; for `Cn1sc(=O)n(Cc2ccccc2)c1=O` + C=CCNC1=C2C[C@@H](C)C[C@H](OC)[C@H](O)[C@@H](C)/C=C(\C)[C@H](OC(N)=O)[C@@H](OC)/C=C\C=C(/C)C(=O)NC(=CC1=O)C2=O [Tanespimycin] (first compound 0.4 µM, partner dose 0.002 µM) it is 167%; for `Cn1cnc2c(F)c(Nc3ccc(Br)cc3Cl)c(C(=O)NOCCO)cc21` [selumetinib] + COc1ccc2c(c1)CCC1C2CCC2(C)C(NCCCCCCN3C(=O)C=CC3=O)CCC12 [U73122] (first compound 0.015 µM, partner dose 0.4 µM) it is 151%.
With `CCCCCCCCc1ccc(CCC(N)(CO)CO)cc1` [fingolimod] + CC(C)(C)c1cnc(CSc2cnc(NC(=O)C3CCNCC3)s2)o1 [SNS-032] (first compound 2 µM, partner dose 0.01 µM), the “cleaved PARP positive nuclei fraction” value stood at 76.6%.
As for `NC(=O)c1ccc(N(C(N)=O)c2c(F)cccc2F)nc1-c1ccc(F)cc1F` + COCC[n+]1c2c(n(Cc3cnccn3)c1C)C(=O)c1ccccc1C2=O [YM155] (first compound 0.4 µM, partner dose 0.0004 µM), the “cleaved PARP positive nuclei fraction” value came to 392%.
With `NC1(c2ccc(-c3nc4ccn5c(=O)[nH]nc5c4cc3-c3ccccc3)cc2)CCC1` + CO[C@@H]1[C@H](N(C)C(=O)c2ccccc2)C[C@H]2O[C@]1(C)n1c3ccccc3c3c4c(c5c6ccccc6n2c5c31)C(=O)NC4 [Midostaurin] (first compound 0.4 µM, partner dose 0.08 µM) the figure was 175%.
The figure for `CC1(C)CCC(c2ccc(Cl)cc2)=C(CN2CCN(c3ccc(C(=O)NS(=O)(=O)c4ccc(N[C@H](CCN5CCOCC5)CSc5ccccc5)c(S(=O)(=O)C(F)(F)F)c4)cc3)CC2)C1` + Cn1nnc2c(C(N)=O)ncn2c1=O [temozolomide] (first compound 0.4 µM, partner dose 2 µM) is 766%.
As to `CN(c1ncccc1CNc1nc(Nc2ccc3c(c2)CC(=O)N3)ncc1C(F)(F)F)S(C)(=O)=O` + CO[C@@H]1[C@H](N(C)C(=O)c2ccccc2)C[C@H]2O[C@]1(C)n1c3ccccc3c3c4c(c5c6ccccc6n2c5c31)C(=O)NC4 [Midostaurin] (first compound 0.08 µM, partner dose 0.08 µM), the “cleaved PARP positive nuclei fraction” value worked out at 111%.
For the compound `Cn1sc(=O)n(Cc2ccccc2)c1=O` + c1cc(-c2cnn3cc(-c4ccc(OCCN5CCCCC5)cc4)cnc23)ccn1 [Dorsomorphin] (first compound 0.4 µM, partner dose 0.4 µM), the “cleaved PARP positive nuclei fraction” value is 84.1%.
For `CC(=O)O[C@@]12CO[C@@H]1C[C@H](O)[C@@]1(C)C(=O)[C@H](O)C3=C(C)[C@@H](OC(=O)[C@H](O)[C@@H](NC(=O)OC(C)(C)C)c4ccccc4)C[C@@](O)([C@@H](OC(=O)c4ccccc4)[C@H]21)C3(C)C` [Docetaxel] + N#Cc1c(O)c2c(-c3ccc(-c4ccccc4O)cc3)csc2[nH]c1=O [A769662] (first compound 0.0001 µM, partner dose 2 µM), the “cleaved PARP positive nuclei fraction” value came out at 360%.
With `Cn1cnc2c(F)c(Nc3ccc(Br)cc3Cl)c(C(=O)NOCCO)cc21` [selumetinib] + OCCn1cc(-c2cnc3nnn(Cc4ccc5ncccc5c4)c3n2)cn1 [PF04217903] (first compound 0.015 µM, partner dose 1 µM), the “cleaved PARP positive nuclei fraction” value was 42.5%.
With `Cn1cnc2c(F)c(Nc3ccc(Br)cc3Cl)c(C(=O)NOCCO)cc21` [selumetinib] + Oc1cc(-c2nc(-c3ccccc3)[nH]c2-c2ccncc2)ccc1Cl [L779450] (first compound 0.015 µM, partner dose 0.2 µM), the “cleaved PARP positive nuclei fraction” value is 156%.
`Cn1sc(=O)n(Cc2ccccc2)c1=O` + CCCCCCCCCCCC1=C(O)C(=O)C=C(O)C1=O [Embelin] (first compound 0.4 µM, partner dose 1.2 µM): the “cleaved PARP positive nuclei fraction” value turned out to be 37.6%.
For `CCN(CC)CCNC(=O)c1c(C)[nH]c(/C=C2\C(=O)Nc3ccc(F)cc32)c1C` [sunitinib] + CCc1ccc(CCOc2ccc(CC3SC(=O)NC3=O)cc2)nc1 [pioglitazone] (first compound 0.4 µM, partner dose 2 µM), the “cleaved PARP positive nuclei fraction” value was determined as 158%.
